Data published in article PMC8302635.
No constants are given. Whether binding was seen depends on the method and setting. Some binding calls cover weakened binding; strength is not graded here. For part of these data: Sequences can lack the tags named with a protein.

T1: SEPT2 (human) (UniProt Q15019)
T1 sequence: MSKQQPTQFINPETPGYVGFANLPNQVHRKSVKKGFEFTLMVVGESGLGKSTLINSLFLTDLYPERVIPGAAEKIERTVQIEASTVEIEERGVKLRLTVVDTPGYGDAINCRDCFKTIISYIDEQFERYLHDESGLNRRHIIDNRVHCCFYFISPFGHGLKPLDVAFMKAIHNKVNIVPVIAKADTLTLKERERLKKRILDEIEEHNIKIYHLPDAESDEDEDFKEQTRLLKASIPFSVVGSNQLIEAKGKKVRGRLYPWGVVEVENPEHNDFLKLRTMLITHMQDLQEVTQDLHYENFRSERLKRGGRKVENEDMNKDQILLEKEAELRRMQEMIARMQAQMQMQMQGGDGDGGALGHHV

T2: SEPT7 (human) (UniProt Q16181)
T2 sequence: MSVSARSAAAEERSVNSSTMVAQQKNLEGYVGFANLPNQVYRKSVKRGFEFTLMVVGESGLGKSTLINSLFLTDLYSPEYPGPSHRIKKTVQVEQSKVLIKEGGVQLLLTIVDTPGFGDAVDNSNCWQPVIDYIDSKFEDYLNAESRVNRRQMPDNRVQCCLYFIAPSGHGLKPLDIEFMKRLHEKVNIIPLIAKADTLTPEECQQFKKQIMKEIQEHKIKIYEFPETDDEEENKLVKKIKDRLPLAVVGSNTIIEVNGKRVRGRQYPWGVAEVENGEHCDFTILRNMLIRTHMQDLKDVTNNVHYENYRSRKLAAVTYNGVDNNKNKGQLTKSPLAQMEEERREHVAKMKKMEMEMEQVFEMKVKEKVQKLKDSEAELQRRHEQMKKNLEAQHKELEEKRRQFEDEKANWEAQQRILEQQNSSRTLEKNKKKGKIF

T3: SEPT2 (human), Q15019
T3 chain: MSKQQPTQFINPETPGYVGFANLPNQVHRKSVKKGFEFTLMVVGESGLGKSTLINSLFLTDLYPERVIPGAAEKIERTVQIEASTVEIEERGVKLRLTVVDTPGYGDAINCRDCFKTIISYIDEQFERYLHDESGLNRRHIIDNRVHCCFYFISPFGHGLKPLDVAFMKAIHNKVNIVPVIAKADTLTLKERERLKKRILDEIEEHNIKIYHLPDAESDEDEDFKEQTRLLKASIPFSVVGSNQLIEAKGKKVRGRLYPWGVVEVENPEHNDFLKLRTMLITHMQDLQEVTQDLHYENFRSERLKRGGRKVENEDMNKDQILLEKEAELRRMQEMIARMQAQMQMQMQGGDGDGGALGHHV


Columns and labels:
Assay in all cases: co-purification; SEPT2, msGFP-SEPT6 (WT or ΔAH) and SEPT7 produced in E. coli BL21-DE3, complex purified as in ref. 51, Coomassie-stained gel; the bait is not stated
SEPT2 (human) = target: T1, SEPT2 (human)
SEPT7 (human) = target: T2, SEPT7 (human)
SEPT2 (human), Q15019 = target: T3, SEPT2 (human), Q15019; details: remark: other sources report otherwise

| binding (SEPT2 (human)) | binding (SEPT7 (human)) | binding (SEPT2 (human), Q15019) | Binder |
| --- | --- | --- | --- |
| binds | binds |  | msGFP-SEPT6 (protein, UniProt Q14141 1-434) MAATDIARQVGEGCRTVPLAGHVGFDSLPDQLVNKSVSQGFCFNILCVGETGLGKSTLMDTLFNTKFEGEPATHTQPGVQLQSNTYDLQESNVRLKLTIVSTVGFGDQINKEDSYKPIVEFIDAQFEAYLQEELKIRRVLHTYHDSRIHVCLYFIAPTGHSLKSLDLVTMKKLDSKVNIIPIIAKADAISKSELTKFKIKITSELVSNGVQIYQFPTDDESVAEINGTMNAHLPFAVIGSTEELKIGNKMMRARQYPWGTVQVENEAHCDFVKLREMLIRVNMEDLREQTHTRHYELYRRCKLEEMGFKDTDPDSKPFSLQETYEAKRNEFLGELQKKEEEMRQMFVQRVKEKEAELKEAEKELHEKFDRLKKLHQDEKKKLEDKKKSLDDEVNAFKQRKTAAELLQSQGSQAGGSQTLKRDKEKKNNPWLCTE |
|  |  | binds | SEPT7, Q16181 1-437 (protein) MSVSARSAAAEERSVNSSTMVAQQKNLEGYVGFANLPNQVYRKSVKRGFEFTLMVVGESGLGKSTLINSLFLTDLYSPEYPGPSHRIKKTVQVEQSKVLIKEGGVQLLLTIVDTPGFGDAVDNSNCWQPVIDYIDSKFEDYLNAESRVNRRQMPDNRVQCCLYFIAPSGHGLKPLDIEFMKRLHEKVNIIPLIAKADTLTPEECQQFKKQIMKEIQEHKIKIYEFPETDDEEENKLVKKIKDRLPLAVVGSNTIIEVNGKRVRGRQYPWGVAEVENGEHCDFTILRNMLIRTHMQDLKDVTNNVHYENYRSRKLAAVTYNGVDNNKNKGQLTKSPLAQMEEERREHVAKMKKMEMEMEQVFEMKVKEKVQKLKDSEAELQRRHEQMKKNLEAQHKELEEKRRQFEDEKANWEAQQRILEQQNSSRTLEKNKKKGKIF |
